{"source": "PubChem BioAssay AID493246 (Drosophila RNAi Screening Center, 2011)", "screen": "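Identify essential fly genes by loss of cell viability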 (primary screen)", "cells": "Drosophila Kc and S2R+ cells", "knock-down reagent": "long dsRNA against Drosophila genes", "measurement": "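Cell number per well after knock-down, printed as raw plate values; calls were based on per-plate z-scores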", "direction": "Kc cell number and S2R+ cell number: higher = more cells remaining", "rule for the call": "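Counted as a hit if cell number falls by a z-score of at least 3 within its plate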", "note": "In all, the deposit lists about 21,000 reagents; below is a random part of those that have a named target and a result. In the full data, 429 (2%) were called active. 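Values are raw and not normalised between plates; calls rest on per-plate z-scores that were not deposited.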 Names joined by + are all predicted targets of the reagent. Not stated in the record: the amount of reagent, the time to read-out."}
{"gene knocked down":"CG10395","DRSC id":"DRSC04840","Kc cell number, rep 1":1.46e6,"Kc cell number, rep 2":1.57e6,"S2R+ cell number, rep 1":1.14e6,"S2R+ cell number, rep 2":1.07e6,"call":"inactive"}
{"gene knocked down":"lin-28","DRSC id":"DRSC10261","Kc cell number, rep 1":1.72e6,"Kc cell number, rep 2":1.70e6,"S2R+ cell number, rep 1":1.26e6,"S2R+ cell number, rep 2":1.28e6,"call":"inactive"}
{"gene knocked down":"blw (bellwether)","DRSC id":"DRSC04675","Kc cell number, rep 1":8.15e5,"Kc cell number, rep 2":8.58e5,"S2R+ cell number, rep 1":8.76e5,"S2R+ cell number, rep 2":1.10e6,"call":"active"}
{"gene knocked down":"Vha16-4 + CG15614","DRSC id":"DRSC07321","Kc cell number, rep 1":1.49e6,"Kc cell number, rep 2":1.49e6,"S2R+ cell number, rep 1":1.14e6,"S2R+ cell number, rep 2":1.30e6,"call":"inactive"}
{"gene knocked down":"timeout","DRSC id":"DRSC12950","Kc cell number, rep 1":1.44e6,"Kc cell number, rep 2":1.64e6,"S2R+ cell number, rep 1":1.10e6,"S2R+ cell number, rep 2":1.23e6,"call":"inactive"}
{"gene knocked down":"timeout","DRSC id":"DRSC17078","Kc cell number, rep 1":1.45e6,"Kc cell number, rep 2":1.46e6,"S2R+ cell number, rep 1":1.15e6,"S2R+ cell number, rep 2":1.27e6,"call":"inactive"}
{"gene knocked down":"timeout","DRSC id":"DRSC17079","Kc cell number, rep 1":1.42e6,"Kc cell number, rep 2":1.42e6,"S2R+ cell number, rep 1":1.15e6,"S2R+ cell number, rep 2":1.26e6,"call":"inactive"}
{"gene knocked down":"timeout","DRSC id":"DRSC17080","Kc cell number, rep 1":1.36e6,"Kc cell number, rep 2":1.44e6,"S2R+ cell number, rep 1":1.14e6,"S2R+ cell number, rep 2":1.30e6,"call":"inactive"}
{"gene knocked down":"timeout","DRSC id":"DRSC17081","Kc cell number, rep 1":1.52e6,"Kc cell number, rep 2":1.54e6,"S2R+ cell number, rep 1":9.99e5,"S2R+ cell number, rep 2":1.09e6,"call":"inactive"}
{"gene knocked down":"CG13300","DRSC id":"DRSC09974","Kc cell number, rep 1":1.59e6,"Kc cell number, rep 2":1.60e6,"S2R+ cell number, rep 1":1.08e6,"S2R+ cell number, rep 2":1.06e6,"call":"inactive"}
{"gene knocked down":"Yod1 (Yod1 deubiquitinase)","DRSC id":"DRSC10433","Kc cell number, rep 1":1.76e6,"Kc cell number, rep 2":1.74e6,"S2R+ cell number, rep 1":1.38e6,"S2R+ cell number, rep 2":1.36e6,"call":"inactive"}
{"gene knocked down":"Smox (Smad on X)","DRSC id":"DRSC18716","Kc cell number, rep 1":1.52e6,"Kc cell number, rep 2":1.49e6,"S2R+ cell number, rep 1":1.02e6,"S2R+ cell number, rep 2":1.09e6,"call":"inactive"}

Records above whose gene name begins with C or c (2):
{"gene knocked down":"CG10395","DRSC id":"DRSC04840","Kc cell number, rep 1":1.46e6,"Kc cell number, rep 2":1.57e6,"S2R+ cell number, rep 1":1.14e6,"S2R+ cell number, rep 2":1.07e6,"call":"inactive"}
{"gene knocked down":"CG13300","DRSC id":"DRSC09974","Kc cell number, rep 1":1.59e6,"Kc cell number, rep 2":1.60e6,"S2R+ cell number, rep 1":1.08e6,"S2R+ cell number, rep 2":1.06e6,"call":"inactive"}
